# Measurements reported in patent publication US20230272089A1 (SYNTHEKINE, published 2023).
# No constants are given. Whether binding was seen depends on the method and setting. Some binding calls cover weakened binding; strength is not graded here.
# T1: mIL2Rg ECD antigen (mouse) (UniProt P34902)
# T1 sequence: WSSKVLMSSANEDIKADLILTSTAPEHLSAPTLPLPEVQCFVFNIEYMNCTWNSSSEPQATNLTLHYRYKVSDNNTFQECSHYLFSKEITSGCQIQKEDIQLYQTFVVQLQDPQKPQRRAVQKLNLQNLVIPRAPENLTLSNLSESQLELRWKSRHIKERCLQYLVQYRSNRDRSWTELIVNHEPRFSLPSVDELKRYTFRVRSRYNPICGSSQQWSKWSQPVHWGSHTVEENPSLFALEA
# B1: mIL2Rg_VHH13 (VHH, not shown: large carriers)
# VHH: QVQLQESGGGSVLAGGSLRLSCVASGYGYNYIGWFRQTPGKEREGVAVIYTGGGDTYYADSVKGRFTASRDNAKSTLYLQMNSLEPEDTAMYYCVARYCVGSVYACLRGGHDEYAHWGQGTQVTVSS
# Molecular target: T1, mIL2Rg ECD antigen (mouse)
# Experiment: periplasmic extract ELISA (PE-ELISA) of phage clones after biopanning
binder,measurement,value
B1,binding,binds
